The results in this text go back to paper PMC9525703.

Amino acid sequences for entries named in this document (tags omitted). A change or cut given only in a name is not applied to a line headed by its entry.
UniProt Q9NVX7: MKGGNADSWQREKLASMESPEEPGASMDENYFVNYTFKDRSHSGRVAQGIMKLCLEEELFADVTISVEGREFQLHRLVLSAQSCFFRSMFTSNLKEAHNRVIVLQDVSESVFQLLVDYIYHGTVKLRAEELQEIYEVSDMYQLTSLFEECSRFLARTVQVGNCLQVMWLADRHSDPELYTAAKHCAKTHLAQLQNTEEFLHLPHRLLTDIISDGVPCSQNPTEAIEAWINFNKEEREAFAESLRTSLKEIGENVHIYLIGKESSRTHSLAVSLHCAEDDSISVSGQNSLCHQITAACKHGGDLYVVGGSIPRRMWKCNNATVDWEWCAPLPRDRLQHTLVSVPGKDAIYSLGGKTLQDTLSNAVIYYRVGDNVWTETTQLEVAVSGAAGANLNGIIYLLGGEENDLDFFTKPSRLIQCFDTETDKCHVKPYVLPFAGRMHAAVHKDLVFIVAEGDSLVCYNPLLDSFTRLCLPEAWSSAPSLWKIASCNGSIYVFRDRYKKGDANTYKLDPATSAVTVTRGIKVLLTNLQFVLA
UniProt Q9UKL0: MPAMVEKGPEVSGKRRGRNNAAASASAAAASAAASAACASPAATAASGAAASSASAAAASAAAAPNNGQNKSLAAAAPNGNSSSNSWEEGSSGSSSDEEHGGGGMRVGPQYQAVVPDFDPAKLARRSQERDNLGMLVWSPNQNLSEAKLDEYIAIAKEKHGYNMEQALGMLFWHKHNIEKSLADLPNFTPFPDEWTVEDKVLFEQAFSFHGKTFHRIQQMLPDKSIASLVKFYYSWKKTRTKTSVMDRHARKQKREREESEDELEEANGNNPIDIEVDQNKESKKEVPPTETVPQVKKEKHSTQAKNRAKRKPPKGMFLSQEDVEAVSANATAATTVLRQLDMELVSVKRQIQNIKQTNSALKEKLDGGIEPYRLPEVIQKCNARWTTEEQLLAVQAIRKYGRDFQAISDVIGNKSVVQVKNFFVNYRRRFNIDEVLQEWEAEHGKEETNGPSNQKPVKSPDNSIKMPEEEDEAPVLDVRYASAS

Test [1] addresses Flag-KBTBD4^P311PP, pCW57.1 construct in D283Med (human) (UniProt Q9NVX7). Description: co-IP; D283Med, Flag-KBTBD4 variants induced with 1 ug/mL doxycycline for 40 h, cells NOT treated with MLN4924; ANTI-FLAG M2 Affinity Gel 3 h at 4 C; endogenous CoREST and LSD1 by immunoblot. A general note: In western blotting, separated proteins are transferred to a membrane and probed.
Test [2] deals with Flag-KBTBD4^R313PRR, pCW57.1 construct in D283Med (human) (UniProt Q9NVX7). The description is as above.
In test [3] the target is Flag-KBTBD4^P311PP, pCW57.1 construct in D283Med (human) (UniProt Q9NVX7). Description: co-IP; D283Med, Flag-KBTBD4 variants induced with 1 ug/mL doxycycline for 40 h, cells treated with 0.1 uM MLN4924; ANTI-FLAG M2 Affinity Gel 3 h at 4 C; endogenous CoREST and LSD1 by immunoblot.
Test [4] deals with Flag-KBTBD4^R313PRR, pCW57.1 construct in D283Med (human) (UniProt Q9NVX7). Described as above.
Test [5] deals with Flag-KBTBD4^WT, pCW57.1 construct in D283Med (human) (UniProt Q9NVX7). Described as above.
The target in test [6] is Flag-KBTBD4^P311PP, MIGR1 construct in DAOY (human) (UniProt Q9NVX7). Description: co-IP; DAOY cell lines stably expressing KBTBD4 variants; endogenous CoREST; which partner was precipitated is not told in the text shown.
For test [7], the target named is Flag-KBTBD4^P311PP, pcDNA3.1(+) construct (human) (UniProt Q9NVX7). The experiment in a line: co-IP; HEK293T co-transfected with HA-CoREST and Flag-KBTBD4 variants; anti-FLAG resin, immunoblot; 0.1 uM MLN4924 for 4-5 h (interaction increased by MLN4924); lysis buffer 50 mM Tris pH 7.5, 150 mM NaCl, 0.1% NP-40.
Test [8] addresses Flag-KBTBD4^R312RG (human) (UniProt Q9NVX7). Described as above.
Test [9] concerns the target Flag-KBTBD4^R313PRR, pcDNA3.1(+) construct (human) (UniProt Q9NVX7). The description is as above.

Results are given in words; binding and its absence hold for the method and conditions named. In cells and extracts the contact can be indirect. For part of these data: A result given as binding can be weak or reduced; the word gives no strength.

On to “CoREST, endogenous in D283Med (from UniProt Q9UKL0 1-485)”, for which the binding result in test [1] is “no binding (only cells not treated with MLN4924)”; in test [2], “no binding (only cells not treated with MLN4924)”; in [3], “binds”; in test [4], “binds”; in test [5], “no binding”.
Turning to “CoREST, endogenous in DAOY (from UniProt Q9UKL0 1-485)”, the binding result in [6] is listed as “binds”.
In the case of “HA-tagged CoREST (CoREST1; pCMV5 HA RCOR1) (from UniProt Q9UKL0 1-485)”, the binding result in test [7], in test [8] and in test [9] was “binds” each time.
